{
  "sequences": {"note": "Chains of the proteins cited; added tags and fusions are not shown.", "UniProt Q13114": "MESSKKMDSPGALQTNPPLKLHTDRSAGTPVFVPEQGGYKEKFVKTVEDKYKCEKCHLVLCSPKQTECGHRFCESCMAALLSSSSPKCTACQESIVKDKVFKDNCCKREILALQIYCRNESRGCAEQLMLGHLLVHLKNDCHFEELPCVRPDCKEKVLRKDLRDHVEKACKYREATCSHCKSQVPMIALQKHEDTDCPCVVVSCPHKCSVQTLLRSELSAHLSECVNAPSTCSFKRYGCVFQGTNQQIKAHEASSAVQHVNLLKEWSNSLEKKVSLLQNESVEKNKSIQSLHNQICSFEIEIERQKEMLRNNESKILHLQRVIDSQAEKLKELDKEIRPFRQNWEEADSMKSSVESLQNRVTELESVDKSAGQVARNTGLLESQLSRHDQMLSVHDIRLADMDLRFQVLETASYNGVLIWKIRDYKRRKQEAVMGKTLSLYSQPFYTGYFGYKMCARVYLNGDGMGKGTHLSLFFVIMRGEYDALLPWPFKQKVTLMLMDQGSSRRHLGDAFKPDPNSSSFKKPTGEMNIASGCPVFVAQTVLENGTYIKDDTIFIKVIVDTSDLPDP", "UniProt Q9Y4K3": "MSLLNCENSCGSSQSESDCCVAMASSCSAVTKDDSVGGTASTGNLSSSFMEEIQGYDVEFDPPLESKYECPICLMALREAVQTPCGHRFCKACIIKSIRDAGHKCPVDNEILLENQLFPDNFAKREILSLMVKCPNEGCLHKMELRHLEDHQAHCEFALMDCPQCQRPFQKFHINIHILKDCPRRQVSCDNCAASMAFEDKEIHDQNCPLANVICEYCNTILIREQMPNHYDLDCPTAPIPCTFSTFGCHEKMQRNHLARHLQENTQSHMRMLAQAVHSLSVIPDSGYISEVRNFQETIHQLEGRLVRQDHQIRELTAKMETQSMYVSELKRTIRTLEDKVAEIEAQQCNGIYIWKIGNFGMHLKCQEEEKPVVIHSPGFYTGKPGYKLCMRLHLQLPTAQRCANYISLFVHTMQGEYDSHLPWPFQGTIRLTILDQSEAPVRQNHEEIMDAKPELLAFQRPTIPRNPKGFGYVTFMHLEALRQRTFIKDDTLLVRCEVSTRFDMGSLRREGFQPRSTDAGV"},
  "source": "paper PMC6635525",
  "biological_target": "ROP38I with a C-terminal HA-FLAG epitope tag (Toxoplasma gondii (type I, RH strain)) (UniProt S8FZ79)",
  "experiment": "affinity purification with mass spectrometry; HA immunoprecipitation (magnetic beads coupled with HA antibodies, overnight at 4°C) from whole-cell lysates of tetracycline-induced TREX-293 GRA15II or ROP38I cells; beads analysed by LC-MS/MS; proteins also found in the ROP38I control excluded",
  "note": "These are yes or no findings as the source states them, for the method shown. Binding seen in cells or lysates may run through a third protein. Here binding means that the protein was enriched with, or labelled near, the bait; the list need not be complete. No binding means not detected with the bait.",
  "data": [
    {"substance": "TNF receptor-associated factor 3 (TRAF3) (from UniProt Q13114 1-568)", "values": [
      {"measurement": "binding", "value": "no binding"}
    ]},
    {"substance": "TNF receptor-associated factor 6 (TRAF6) (from UniProt Q9Y4K3 1-522)", "values": [
      {"measurement": "binding", "value": "no binding"}
    ]}
  ]
}
